Publication PMC9671898

T1: cCFP-U2AF65A (Arabidopsis thaliana) (UniProt O23212)
T1 sequence: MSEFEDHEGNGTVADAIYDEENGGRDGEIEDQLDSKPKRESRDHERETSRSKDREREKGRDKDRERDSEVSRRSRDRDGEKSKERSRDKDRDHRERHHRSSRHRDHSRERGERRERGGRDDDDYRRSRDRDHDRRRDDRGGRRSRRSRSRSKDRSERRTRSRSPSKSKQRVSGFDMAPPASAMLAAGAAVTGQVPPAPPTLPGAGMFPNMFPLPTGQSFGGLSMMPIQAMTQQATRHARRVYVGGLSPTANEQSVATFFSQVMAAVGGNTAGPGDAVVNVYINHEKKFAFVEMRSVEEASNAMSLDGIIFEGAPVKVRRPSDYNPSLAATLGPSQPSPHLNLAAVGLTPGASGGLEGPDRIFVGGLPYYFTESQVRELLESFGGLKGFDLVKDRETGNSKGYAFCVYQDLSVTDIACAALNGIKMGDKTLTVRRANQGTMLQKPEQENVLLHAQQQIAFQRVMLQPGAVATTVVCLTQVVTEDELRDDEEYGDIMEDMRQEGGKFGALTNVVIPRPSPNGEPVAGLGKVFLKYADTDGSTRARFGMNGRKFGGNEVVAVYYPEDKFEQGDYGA

B1: CIS1 (CRY2 … SPLICING FACTOR 1) fused to the GAL4 activation domain (pGADT7) (protein, UniProt Q94C11 1-443)
chain: MDKGAPPSIFVNDGSFMERFRQLQQEKDKDKDKVVQVEDSKPVKIISNPKPAANKISIGLKPNDAQKKGGKLAFSLKQKSKLLAPPVKLGTEEDEDDEDVKHEQGFGSVKRQKLEQRDTPVKSAKVSDVAPPPPSDPTVKKVADKLASFVAKHGRPFEHITRQKNPGDTPFKFLFDENCADYKYYVFRLAEEEKLISQTKDSGVLHSGDAGSRTSTAAIPLQKPAYQQTGYQIPASALYDTPVEPGASSRSAQASITRPSDSDSFSGPRGADPLSMMEFYMKKAAQEEKMRRPRQSKDEMPPPASLQGPSETSSTDPGKRGHHMGDYIPLEELDKFLSKCNDAAAQKATKEAAEKAKIQADNVGHKLLSKMGWKEGEGIGSSRKGMADPIMAGDVKTNNLGVGASAPGEVKPEDDIYEQYKKRMMLGYKHRPNPLGNPRKAYY

Experiments:
[1] = target: T1, cCFP-U2AF65A (Arabidopsis thaliana); experiment: split reporter; BiFC: fusions to CFP(155-238) and YFP(1-172) co-infiltrated into N. benthamiana leaves; plants left under long days, white light, 3 days
[2] = target: N-terminal domain of CRY2 fused to the GAL4 DNA binding domain (pBridge) (Arabidopsis thaliana); experiment: two-hybrid; CRY2 fragments with CIS1: β-galactosidase assay of Y190 colonies patched in duplicate on -Leu/-Thr plates, one duplicate under blue light (30 μmol m^-2 s^-1) at 28 °C for 2-3 days, the other wrapped in aluminum foil

Molecule | binding [1] | binding [2]
CIS1(ΔN)-nYFP (Arabidopsis thaliana) (domain or fragment) | no binding | 
B1 |  | binds

No constants are given. Whether binding was seen depends on the method and setting. For some assays here: A result given as binding can be weak or reduced; the word gives no strength. Where a sequence is shown, tags or fusion partners need not be part of it. For some assays here: Binding seen in cells or lysates may run through a third protein.
